Measured values: US20240165253A1 (REMEGEN, published 2024)
No constants are given. Whether binding was seen depends on the method and setting. Some binding calls cover weakened binding; strength is not graded here.

Amino acid sequences for entries named in this document (tags omitted). Residues count along the entry.
UniProt P08581, residues 25-932: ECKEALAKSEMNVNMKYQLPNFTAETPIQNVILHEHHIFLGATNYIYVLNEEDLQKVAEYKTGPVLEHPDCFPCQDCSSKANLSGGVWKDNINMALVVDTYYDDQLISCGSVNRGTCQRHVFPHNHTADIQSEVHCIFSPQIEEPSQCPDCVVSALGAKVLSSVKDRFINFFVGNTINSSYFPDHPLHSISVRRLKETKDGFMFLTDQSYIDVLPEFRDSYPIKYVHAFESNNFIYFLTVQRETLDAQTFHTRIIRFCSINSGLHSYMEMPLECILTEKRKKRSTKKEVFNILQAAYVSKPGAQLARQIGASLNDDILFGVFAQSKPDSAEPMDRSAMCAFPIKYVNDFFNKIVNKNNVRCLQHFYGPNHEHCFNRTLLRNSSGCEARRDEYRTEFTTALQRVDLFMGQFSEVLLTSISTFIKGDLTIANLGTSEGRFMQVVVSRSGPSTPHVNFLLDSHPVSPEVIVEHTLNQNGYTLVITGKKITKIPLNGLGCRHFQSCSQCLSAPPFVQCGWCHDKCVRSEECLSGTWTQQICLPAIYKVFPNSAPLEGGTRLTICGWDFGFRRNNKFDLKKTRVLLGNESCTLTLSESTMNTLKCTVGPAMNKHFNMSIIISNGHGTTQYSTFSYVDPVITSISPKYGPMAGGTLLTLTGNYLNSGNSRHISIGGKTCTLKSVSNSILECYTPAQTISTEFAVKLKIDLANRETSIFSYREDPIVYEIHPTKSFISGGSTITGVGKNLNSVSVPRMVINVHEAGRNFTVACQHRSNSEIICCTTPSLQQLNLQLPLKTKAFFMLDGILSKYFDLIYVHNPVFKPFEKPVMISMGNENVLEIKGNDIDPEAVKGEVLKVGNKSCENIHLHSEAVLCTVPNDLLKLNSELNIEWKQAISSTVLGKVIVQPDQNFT

Assays:
[1] = molecular target: T1, soluble ED protein (UniProt P08581 25-932, limits assumed); test: ELISA, plate coated with soluble ED protein
T1 construct: domain: ED; It is read here as the c-Met extracellular domain because the antibodies are anti-c-Met

[2] = molecular target: T2, c-Met protein (UniProt P08581 25-932, limits assumed); test: ELISA, plate coated with c-Met protein
T2 construct: The construct is not described; also called c-Met antigen

B1: anti-c-Met humanized antibody AAJ8D6 (antibody, human IgG1, kappa, V domains shown)
VH: QVQLEQSGPEVVKPGASVKVSCKASGYSFTSYWMHWVRQAPGQGLEWMGMIDPSDSESRLNQKFKDRVTMTVDTPTSTVYMELSSPRSEDTAVYYCARSGYHGTSYWYFDVWGQGTLVTVSS
VL: DIVMTQSPLSLPVTPGEPASISCRSSKSLLHSDGITYLYWYLQKPGQSPQLLIYQMSNLASGVPDRFSGSGSGTDFTLKISRVEAEDVGVYYCAQNLELPPTFGGGTKVEIKR
notes: also called AAJ8D6 antibody
B1 was tested, and the binding [1] was “binds” and the binding [2] was “binds”.
